# Measured values published in PubChem BioAssay AID493014 (National Center for Advancing Translational Sciences (NCATS), 2011).
# Some of the results follow. These are further read-outs of the screen, such as a control signal, another cell line or another target. No call is given for them. Most of these compounds were active or inconclusive in the main read-out, so they are no random draw. Potencies come from curve fits of mixed quality, noted in brackets.
# Test: qHTS Assay to Find Inhibitors of Chronic Active B-Cell Receptor Signaling
# Details: ABC-DLBCL IkBa-CBG/CBR reporter, luminescence ratio (green luciferase fused to IkBa over red control in TMD8 lymphoma cells), 4 h
# In short: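 Compounds up to 46 uM were incubated four hours with TMD8 cells whose green CBG68 luciferase is fused to IkappaBalpha; red CBR luminescence normalised the signal, and concentration-effect curves were fitted to fusion, red and ratio data.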
# [1] = measured here: CBR red luminescence, cell number
# [2] = measured here: IkBa-CBG green luminescence
Compound,AC50 [1],AC50 [2]
COc1ccc(-c2ccoc2)cc1[C@H]1[C@H]2C=CC[C@@H](C)[C@@H]2C(=O)N1Cc1ccccc1,"0.398 µM [rising, full curve, poor fit]",
COC(=O)c1c(NC(=O)c2ccccc2C(=O)O)sc2c1CCC2,"11.2 µM [falling, single point]",
O=C(CNC(=O)c1ccccc1)NCC(=O)OCC(=O)c1ccc(F)cc1,"32.6 µM [rising, partial curve, poor fit]",
CCN(C(=O)COC(=O)CNC(=O)c1sc2ccccc2c1Cl)C1CCCCC1,"20.6 µM [rising, partial curve]",
Cc1ccc(NC(=O)c2cc(S(=O)(=O)N3CCc4ccccc43)cn2C)cc1,"5.01 µM [falling, partial curve, poor fit]",
C/C(=N\NC(=O)c1ccccc1)c1ccccc1Br,"16.4 µM [falling, single point]",
O=C(Nc1cccc(-c2nc3ccccc3c(=O)o2)c1)c1ccccc1,"22.4 µM [falling, single point]",
Cc1ccc(CNC(=O)Nc2cccs2)cc1,"0.58 µM [rising, partial curve, poor fit]",
CCN(CC)S(=O)(=O)c1ccc(NC(=O)c2ccc(N3CCCC3=O)cc2)cc1,"4.11 µM [rising, single point]",
CCc1ccc(NC(=O)C2=CC(c3ccc(OC)c(OC)c3)=NS(=O)(=O)N2C)cc1,"35.5 µM [falling, single point]",
Cn1c(CC(=O)Nc2ccc(Cl)c(Cl)c2)nnc1SCC(=O)NCc1ccccc1,"1.12 µM [falling, full curve, poor fit]",
C[C@@H]1NC(=O)[C@H](CCCN=C(N)N)NC(=O)c2cc([N+](=O)[O-])cc(I)c2NCCC[C@@H](C(N)=O)NC1=O,"23.1 µM [rising, single point]",
O=C(NCCC1CCCCN1S(=O)(=O)c1ccccc1)C(=O)Nc1ccccc1 (stereo not given),"6.51 µM [falling, full curve]",
CC(C)c1ccc(N2C(=O)[C@@H]3Cc4ccccc4CN3C2=O)cc1,"0.82 µM [rising, full curve]",
Cc1noc(C)c1CSc1cc(C)c2ccccc2n1,"12.6 µM [rising, partial curve]","20 µM [falling, single point]"
CC(CN1CCOCC1)OC(=O)c1cccs1 (stereo not given),"29.1 µM [rising, single point]",
O=C1/C(=C/c2cccs2)Sc2ccccc21,"32.6 µM [falling, single point]",
CCN1C(=O)[C@H]2[C@@H](c3ccc(C)cc3)N3C(=O)N(c4cccc(Cl)c4)C(=O)[C@@]3(CC(C)C)[C@H]2C1=O,"3.66 µM [falling, partial curve, poor fit]",
NS(=O)(=O)c1ccc(NC(=O)CCc2ccccc2)cc1,"9.2 µM [rising, partial curve, poor fit]",
COc1cccc(-c2cc(C(=O)Nc3cc(OC)c(OC)c(OC)c3)no2)c1,"29.1 µM [falling, single point]",
COc1cc(CC(=O)NCCc2ccc(OCc3ccccc3)cc2)c([N+](=O)[O-])cc1OC,"5.8 µM [falling, full curve, poor fit]",

Compound,AC50 [1],AC50 [2]
COc1ccccc1CC(=O)Nc1ccc([N+](=O)[O-])cc1O,"35.5 µM [falling, single point]",
CCOc1ccc2nc(SCC(=O)Nc3cc(C)on3)c(C)cc2c1,"5.01 µM [falling, partial curve, poor fit]",
O=c1[nH]c2ccccc2n1C1CCCCC1,"29.1 µM [rising, single point]",
CCOc1ccc(OCC)c(NC(=O)Cn2c(C)nc3ccccc3c2=O)c1,"20 µM [falling, single point]",
Cc1ccc(NC(=O)c2ccc(S(=O)(=O)N3CCCC3)cc2)nc1,"1.64 µM [falling, partial curve, poor fit]",
CCOC(=O)N/N=C/c1c(F)c(F)c(F)c(F)c1F,"23.1 µM [falling, single point]",
CCC(C)NC(=O)CS(=O)Cc1nc(-c2cccc(OC)c2)oc1C (stereo not given),"0.0058 µM [rising, full curve, poor fit]",
Cn1nnnc1SCC(=O)NNC(=O)c1ccc(Cl)cc1,"35.5 µM [rising, single point]",
CCN(CC)c1ccc(/C=N/NC(=O)Nc2ccccc2)cc1,"0.178 µM [rising, full curve, poor fit]",
CCOC(=O)c1c(-c2ccc(OC)cc2)csc1/N=C/N(C)C,"11.6 µM [rising, partial curve, poor fit]",
CCc1ccc(C(=O)COC(=O)c2n[nH]c3ccccc23)cc1,"8.91 µM [falling, partial curve]",
Cc1ccc(C2C3=C(CCCC3=O)Nc3c2c(C)nn3-c2ccccn2)o1 (stereo not given),"11.2 µM [falling, partial curve, poor fit]",
CCNC(=O)COc1ccc(CC)cc1,"32.6 µM [rising, partial curve, poor fit]",
Cc1noc(C)c1C(=O)Nc1ccccn1,"3.66 µM [rising, single point]",
O=C(Nc1ccccc1)Nc1nc2ccccc2s1,"3.98 µM [falling, partial curve, poor fit]",
CCCCCCOc1ccc(/C=c2\s/c(=C(/C#N)C(=O)NCc3ccco3)n(-c3ccccc3)c2=O)cc1,"16.4 µM [falling, single point]",
O=C(CSCc1ccccc1Cl)Nc1ccc2c(c1)OCCO2,"1.41 µM [rising, partial curve]",
CCOC(=O)c1c(NC(=O)c2ccc(Br)cc2)sc2c1CCCC2,"20 µM [falling, partial curve, poor fit]",
O=C(c1cccc(S(=O)(=O)N2CCOCC2)c1)N1CCN(S(=O)(=O)c2cccc([N+](=O)[O-])c2)CC1,"29.1 µM [falling, single point]",
CN1CCC(=NNC(=O)C(=O)Nc2ccc(F)cc2)CC1,"12.6 µM [falling, partial curve]",
O=C(Nc1ccccc1F)Nc1cc(Cl)ccc1-n1cncn1,"0.562 µM [rising, partial curve, poor fit]",

# One compound at a time, as listed above.
# CCc1ccc(NC(=O)C2=CC(c3ccc(OC)c(OC)c3)=NS(=O)(=O)N2C)cc1 is listed with AC50 [1]: 35.5 µM [falling, single point]
# Cc1ccc(CNC(=O)Nc2cccs2)cc1 is listed with AC50 [1]: 0.58 µM [rising, partial curve, poor fit]
# NS(=O)(=O)c1ccc(NC(=O)CCc2ccccc2)cc1 is listed with AC50 [1]: 9.2 µM [rising, partial curve, poor fit]
# CCOc1ccc2nc(SCC(=O)Nc3cc(C)on3)c(C)cc2c1 is listed with AC50 [1]: 5.01 µM [falling, partial curve, poor fit]

# (cont.)

Compound,AC50 [1],AC50 [2]
CCn1cc(C(=O)N2CCN(C(=O)c3ccco3)CC2)c2cc(OC)c(OC)cc2c1=O,"3.66 µM [rising, full curve, poor fit]",
CCOC(=O)c1cc2c(=O)n3cccc(C)c3nc2n(Cc2ccco2)c1=NC(=O)c1cccnc1,"0.58 µM [falling, full curve, poor fit]",
O=C(N/N=C/c1cccnc1)c1ccccc1Br,"3.16 µM [falling, partial curve]",
O=C1/C(=C/c2ccc(O)cc2)SC(=S)N1CC1CCCO1 (stereo not given),"35.5 µM [falling, single point]",
CCOc1cc(-c2conc2N)cc(OCC)c1OCC,"0.092 µM [rising, full curve, poor fit]",
C=CCNC(=O)c1ccc(-c2ccc([N+](=O)[O-])cc2)o1,"29.1 µM [rising, single point]",
O=C1CN(C(=O)COC(=O)/C=C/c2ccc(OC(F)F)cc2)c2ccccc2N1,"16.4 µM [rising, partial curve, poor fit]",
Cc1ccccc1CC1(CO)CCCN(Cc2ccc(C#CC(C)(C)O)cc2)C1 (stereo not given),"17.8 µM [falling, partial curve, poor fit]",
CCN1CCN(S(=O)(=O)c2ccc(OC)c(Br)c2)CC1,"6.51 µM [rising, single point]",
Cc1ccc(CCNC(=O)c2cc(C)nn2-c2ccccc2)cc1,"6.31 µM [rising, single point]",
O=C(NNC(=O)c1cccs1)c1ccc(Cl)c(Cl)c1,"18.4 µM [falling, partial curve]",
Clc1ccc(-c2nnc(-c3ccccc3)c(-c3ccccc3)n2)cc1,"1.41 µM [rising, partial curve, poor fit]",
COc1ccc(NC(=O)/C(Cl)=C(/Cl)S(=O)Cc2ccc(C)cc2)cn1 (stereo not given),"1.16 µM [falling, full curve, poor fit]","0.82 µM [rising, full curve, poor fit]"
CC(C)(C)NC(=O)CN(C(=O)c1snc(C(=O)NC2CCCCC2)c1N)c1ccc(F)cc1,"35.5 µM [rising, single point]",
COC(=O)C1CCN(C(=O)Cc2ccccc2OC)CC1,"5.62 µM [falling, single point]",
Cc1ccc(C2(C)NC(=O)N(CC(=O)Nc3ccc4c(c3)OCO4)C2=O)cc1 (stereo not given),"4.11 µM [rising, full curve, poor fit]",
COc1ccc(C(=O)COC(=O)C(C(C)C)N2C(=O)C3C4C=CC(C4)C3C2=O)cc1 (stereo not given),"8.2 µM [rising, partial curve, poor fit]",
COc1ccc(CNC(=O)c2sccc2C)cc1,"3.16 µM [falling, full curve]",
CCCCn1c(N)c(N(CC(C)C)C(=O)c2cccc(OCc3ccccc3)c2)c(=O)[nH]c1=O,"29.1 µM [falling, single point]",
Cc1ccccc1Cn1c(=N)n(CC(O)c2ccco2)c2ccccc21 (stereo not given),"20.6 µM [falling, single point]",
CN(C)N1C(N)=C(C#N)C(c2ccccc2)C2=C1CCCC2=O (stereo not given),"35.5 µM [falling, single point]",
